# Laboratory results: the supplement of paper PMC12067093, “Discovery and optimisation of a covalent ligand for TRIM25 and its application to targeted protein ubiquitination” (Chemical Science, 2025)
# Some of the results follow.
# Compound: Cc1cc(ccc1-c1ccccc1)C(=O)N1CCCN(CC1)C(=O)CCl [compound 10]
# Test: probe-labelled cysteine peptide fold change vs DMSO (competition) (log2 fold change); higher = less target engagement (more negative = stronger competition)
# Conditions: THP-1, incubation time: 4 h
# 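Also: competitive profiling in live THP-1 cells: cysteine peptides tagged with an iodoacetamide desthiobiotin (IA-DTB) probe, intensity after compound treatment relative to DMSO-treated cells.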
target,measurement,setting,value
RAB3GAP2_Q9H2M9_828_TACIQSENNGAALLSAHVGHSVAAQISNNMTEK (UniProt Q9H2M9),probe-labelled cysteine peptide fold change,10 µM,0.0246
same,probe-labelled cysteine peptide fold change,50 µM,-0.107
RAB4B_P61018_23_SCLLHQFIENK (UniProt P61018),probe-labelled cysteine peptide fold change,10 µM,-0.182
same,probe-labelled cysteine peptide fold change,50 µM,-0.0236
R3HCC1L_Q7Z5L2_147_KVECLEVETTDVTGHER (UniProt Q7Z5L2),probe-labelled cysteine peptide fold change,10 µM,-0.167
same,probe-labelled cysteine peptide fold change,50 µM,0.116
RAD23A_P54725_344_ALGFPESLVIQAYFACEK (UniProt P54725),probe-labelled cysteine peptide fold change,10 µM,0.183
same,probe-labelled cysteine peptide fold change,50 µM,0.223
PUS7_Q96PZ0_319_CLMNFK (UniProt Q96PZ0),probe-labelled cysteine peptide fold change,10 µM,-0.0229
same,probe-labelled cysteine peptide fold change,50 µM,-0.239
RAB35_Q15286_110_WLHEINQNCDDVCR (UniProt Q15286),probe-labelled cysteine peptide fold change,10 µM,0.00387
same,probe-labelled cysteine peptide fold change,50 µM,-0.0779
PXK_Q7Z7A4_112_GLQNYLNVITTNHILSNCELVKK (UniProt Q7Z7A4),probe-labelled cysteine peptide fold change,10 µM,0.00275
same,probe-labelled cysteine peptide fold change,50 µM,-0.513
QARS_P47897_556_VGVTVAQTTMEPHLLEACVR (UniProt P47897),probe-labelled cysteine peptide fold change,10 µM,0.0226
same,probe-labelled cysteine peptide fold change,50 µM,0.133
QARS_P47897_657_GPSGCVESLEVTCR (UniProt P47897),probe-labelled cysteine peptide fold change,10 µM,0.198
same,probe-labelled cysteine peptide fold change,50 µM,0.101
RAB1A_P62820_26_SCLLLR (UniProt P62820),probe-labelled cysteine peptide fold change,10 µM,-0.139
same,probe-labelled cysteine peptide fold change,50 µM,-0.425
RAB3IL1_Q8TBN0_29_STDPCQGHR (UniProt Q8TBN0),probe-labelled cysteine peptide fold change,10 µM,-0.335
same,probe-labelled cysteine peptide fold change,50 µM,-0.388
RAB3GAP1_Q15042_858_CEQEEEK (UniProt Q15042),probe-labelled cysteine peptide fold change,10 µM,-0.0888
same,probe-labelled cysteine peptide fold change,50 µM,0.245
RABEP2_Q9H5N1_482_VQREETEVLEASLCSLR (UniProt Q9H5N1),probe-labelled cysteine peptide fold change,10 µM,0.00216
same,probe-labelled cysteine peptide fold change,50 µM,-0.31
PXN_P49023_290_CWAAGWPR (UniProt P49023),probe-labelled cysteine peptide fold change,10 µM,-0.186
same,probe-labelled cysteine peptide fold change,50 µM,-0.468
QTRT1_Q9BXR0_67_GITTEQLDALGCR (UniProt Q9BXR0),probe-labelled cysteine peptide fold change,10 µM,0.073
same,probe-labelled cysteine peptide fold change,50 µM,-0.35
RAC2_P15153_178_AVLCPQPTR (UniProt P15153),probe-labelled cysteine peptide fold change,10 µM,-0.00784
same,probe-labelled cysteine peptide fold change,50 µM,-0.117
PWP2_Q15269_612_AFTALCYSADGHSILAGGMSK (UniProt Q15269),probe-labelled cysteine peptide fold change,10 µM,0.215
same,probe-labelled cysteine peptide fold change,50 µM,0.425
PUS7_Q96PZ0_258_GSYCHFVLYK (UniProt Q96PZ0),probe-labelled cysteine peptide fold change,10 µM,-0.0223
same,probe-labelled cysteine peptide fold change,50 µM,-0.0633
RABGGTA_Q92696_302_NRPSHVWLCDLPAASLNDQLPQHTFR (UniProt Q92696),probe-labelled cysteine peptide fold change,10 µM,0.0604
same,probe-labelled cysteine peptide fold change,50 µM,-0.00746
PYCR2_Q96C36_225_MLLDSEQHPCQLK (UniProt Q96C36),probe-labelled cysteine peptide fold change,10 µM,-0.207
same,probe-labelled cysteine peptide fold change,50 µM,-0.344
RAB32_Q13637_162_DSSQSPSQVDQFCK (UniProt Q13637),probe-labelled cysteine peptide fold change,10 µM,0.0381
same,probe-labelled cysteine peptide fold change,50 µM,0.224
RAB33A_Q14088_57_FCGGTFPDK (UniProt Q14088),probe-labelled cysteine peptide fold change,10 µM,0.194
same,probe-labelled cysteine peptide fold change,50 µM,0.43
RAB3D_O95716_137_CDLEDERVVPAEDGR (UniProt O95716),probe-labelled cysteine peptide fold change,10 µM,0.0743
same,probe-labelled cysteine peptide fold change,50 µM,0.204

# Part of the list above, reformatted.
target | measurement | setting | value
RAB3GAP1_Q15042_858_CEQEEEK (UniProt Q15042) | probe-labelled cysteine peptide fold change | 10 µM | -0.0888
same | probe-labelled cysteine peptide fold change | 50 µM | 0.245
RABEP2_Q9H5N1_482_VQREETEVLEASLCSLR (UniProt Q9H5N1) | probe-labelled cysteine peptide fold change | 10 µM | 0.00216
